Data taken from PubChem BioAssay (NCATS).
Where “and” joins values, the source holds several entries; their conditions need not be identical. Equal entries are not always repeated. The inconclusive results got no clear call from the source; some entries with a clear call stand among them for comparison. For some assays here: Potencies beside an inconclusive call are fits to weak or partial responses and may not hold up. Calls of active or inactive are those of the source. Unless noted, the call rests on the fitted dose curve; in most records, active means well fitted curve in either direction with a large enough effect (not every such curve was filed as active); inconclusive means small, poorly fitted or top-dose-only effect, or another doubt; inactive means flat fitted curve, though single readings scatter.

The chains behind the UniProt entries cited, without tags or fusion partners. Where a name states a change or a piece, a line headed by the entry shows the natural chain unless it says otherwise.
UniProt P08482: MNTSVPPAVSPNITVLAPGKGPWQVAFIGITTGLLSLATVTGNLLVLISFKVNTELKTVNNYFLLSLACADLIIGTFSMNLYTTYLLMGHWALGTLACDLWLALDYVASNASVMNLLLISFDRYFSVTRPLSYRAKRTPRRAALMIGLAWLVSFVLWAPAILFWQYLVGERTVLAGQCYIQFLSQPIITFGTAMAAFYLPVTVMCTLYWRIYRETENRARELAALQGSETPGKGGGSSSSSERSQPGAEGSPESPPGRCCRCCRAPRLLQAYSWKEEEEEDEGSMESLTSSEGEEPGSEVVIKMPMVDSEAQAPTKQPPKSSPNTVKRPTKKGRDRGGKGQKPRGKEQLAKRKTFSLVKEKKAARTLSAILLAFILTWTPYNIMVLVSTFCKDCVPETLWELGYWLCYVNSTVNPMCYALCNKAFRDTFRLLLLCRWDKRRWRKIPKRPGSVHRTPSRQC

Legend:
[1] = Stat Signaling Pathway (AID 446); settings: ME-180 SIE beta-lactamase reporter, IL-6 stimulated, 5 h; at 7.69 µM (top of the series) unless noted;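 further: ME-180 cervical cancer cells given 40 pM IL-6 alongside compound; SIE-controlled beta-lactamase reporter measured as 460/530 nm FRET emission ratio; on the % scale 0 is the no-effect control and ±100 the full control effect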
Outline: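 FRET read-out (405 nm excitation, 460/530 nm emission) of a beta-lactamase reporter under a STAT-inducible element in ME-180 cervical carcinoma cells. Cells with compound receive 40 pM IL-6 for 5 h. Values are normalised to AC90 stimulation and AC90 JAK-inhibitor controls.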

[2] = NFAT Signaling Pathway (AID 444); settings: Jurkat NFAT-bla M1, carbachol, beta-lactamase ratio, 5 h; at 17.2 µM (top of the series) unless noted;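 further: carbachol stimulus at about its EC50 of 1 µM final; on the % scale 0 is the no-effect control and ±100 the full control effect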
Outline: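 Read-out: CCF4 FRET ratio (460 nm/530 nm) after 1 h RT dye loading, used for %activity and AC50 from titration series. Cells: Jurkat NFAT-β-lactamase/M1 line, treated with compound plus 1 uM carbachol for 5 h, 37 °C.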

[3] = qHTS Assay for Identification of Small Molecule Agonists for Hypoxia Response Element Signaling Pathway (AID 914; active means well fitted activation curve with a large enough effect in the signal ratio, with a control signal flat, not every such curve was filed as active; inconclusive means small, poorly fitted or top-dose-only effect, or effect the other way, or a change in a side signal; the % refers to the signal ratio; further: potency means the concentration at half of the fitted maximal effect; on activation: % of control where 0% means no effect); settings: ME-180 (cervical carcinoma) HRE-bla reporter, beta-lactamase ratio, CoCl2, 17 h; activation: hits give high values
Outline: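 Reporter activity (beta-lactamase, CCF4 460nm/530nm ratio) in HRE-bla ME-180 cells is recorded after 17 h compound exposure with EC50 CoCl2 at 37 degrees Celsius. AC50 values come from titration data.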

[4] = qHTS Assay for Identification of Small Molecule Agonists for Thrombopoietin (TPO) Signaling Pathway (AID 917; active means well fitted curve in the direction sought with a large enough effect; inconclusive means small, poorly fitted or top-dose-only effect, or another doubt; inactive means no such curve, though single readings can be large; an effect the other way counts as inactive or inconclusive; further: on the % scale 0 is the no-effect control and ±100 the full control effect); settings: TPO signaling pathway reporter cells, agonist qHTS, stimulated with TPO at its EC50; activity, positive = activation: at 38.5 µM (top of the series)
Outline: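 Luciferase reporter (Glycoprotein IIb promoter) in IL-3-deprived Ba/F3 cells carrying human TPO receptor; compounds co-added with 26 pM TPO, incubated 24 h, 37 C. Steadylite luminescence measured after 10 min.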

[5] = biological target: Muscarinic acetylcholine receptor M1 (Rattus norvegicus) (UniProt P08482); assay: qHTS Assay for Antagonists of Acetylcholine Muscarinic M1 Receptor: Kinetic Measurement of Intracellular Calcium Response (AID 943; active means well fitted curve in the direction sought with a large enough effect; inconclusive means small, poorly fitted or top-dose-only effect, or another doubt; inactive means no such curve, though single readings can be large; an effect the other way counts as inactive or inconclusive; further: nearly all actives have a fitted effect of over 75% in size; further: potency means the concentration at half of the fitted maximal effect;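 on activity change, negative = inhibition: Fluo-4 calcium signal as peak divided by basal fluorescence over 4 min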)
Outline: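 Antagonism measured as reduction of carbachol-evoked (EC80, 100 nM final) calcium flux in rat M1-CHO cells after 10 min compound exposure. Fluo-4 signal read kinetically; ratio of maximal to basal fluorescence.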

[6] = qHTS Assay for Identification of Small Molecule Antagonists for Thrombopoietin (TPO) Signaling Pathway (AID 918; active means well fitted curve in the direction sought with a large enough effect; inconclusive means small, poorly fitted or top-dose-only effect, or another doubt; inactive means no such curve, though single readings can be large; an effect the other way counts as inactive or inconclusive); settings: TPO-dependent cell signaling reporter, antagonist mode; activity change, negative = inhibition: at 38.5 µM (top of the series)
Outline: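 Inhibition read as reduced luciferase luminescence after 24 h at 37 C in IL-3-deprived Ba/F3 cells carrying human TPO receptor and GPIIb-promoter reporter, stimulated with 26 pM TPO (final, its EC50) alongside compound.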

[7] = qHTS Assay for Identification of Small Molecule Agonists for NFkB Signaling Pathway (AID 928; calls by dose curve); settings: NFkB beta-lactamase reporter cells, blue/green ratio
Outline: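 Activators were sought with TNF alpha co-added at 10 pM final (its EC50) to beta-lactamase reporter cells. Cells were plated in OPTI MEM with 0.5% FBS and exposed for 5 hrs at 37 C. The FRET substrate ratio was read at 460 and 530 nm.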

[8] = biological target: Muscarinic acetylcholine receptor M1 (Rattus norvegicus) (UniProt P08482); assay: qHTS Assay for Antagonists of Acetylcholine Muscarinic M1 Receptor: Measurement of IP-One Response (AID 944; active means well fitted curve in the direction sought with a large enough effect; inconclusive means small, poorly fitted or top-dose-only effect, or another doubt; inactive means no such curve, though single readings can be large; an effect the other way counts as inactive or inconclusive; further: potency means the concentration at half of the fitted maximal effect; nearly all actives have a fitted effect of over 75% in size)

In the case of `O=S(=O)(c1ccccc1)N1CCC2(CC1)CN(c1ncccn1)C2`, the activity, negative = inhibition [1] is reported as inactive: -1.43%.

In the case of `Clc1ccc2[nH]c3c(NCCN4CCOCC4)ncnc3c2c1`, the activity change, negative = inhibition [2] is reported as inconclusive: 1.15% [inhibitor] and the activation [3] is reported as inconclusive: -33.2%.

For `C=CCn1c(=O)c(C(=O)NCCN(CC)CC)c(O)c2ccccc21`, the activity change, negative = inhibition [2] was inconclusive: -60% [inhibitor] and the Potency [3] was inconclusive: 6.31 µM [inhibitor, partial curve].

With `CC1(C)C2CCC1(C)C(OC(=O)CC(=O)O)C2` (configuration not stated) the activity, negative = inhibition [1] was inconclusive: 10.3% [inhibitor] [at 17.2 µM].

In the case of `CCCCCCCCCCCCCCCCCCNC(=O)OC[C@@H](COP(=O)([O-])OCC[n+]1ccsc1)OC`, the activity change, negative = inhibition [2] is reported as inconclusive: -74.7% [inhibitor] [at 38 µM], the Potency [4] is reported as “inactive” and the Potency [5] is reported as inconclusive: 15.8 µM [inhibitor, partial curve, poor fit].

With `CCCCCCCCCCCCCCC/C=C\[C@H](O)[C@@H](NC(=O)CCCCCCCCCCCCC)OC` (tested in a mixture with another compound) the activity change, negative = inhibition [2] was inactive: 13% [at 38 µM], the activity change, negative = inhibition [6] was inconclusive: 5.45% [phenotype inactive] and the Potency [5] was “inactive”.

With `CN1[C@@H]2CC(OC(=O)[C@@H](CO)c3ccccc3)C[C@H]1[C@H]1O[C@H]12` (some centres not stated) the activity change, negative = inhibition [2] was active: -57.6% [at 38 µM] and the activity change, negative = inhibition [6] was inconclusive: -18.7% [phenotype inactive].

In the case of `OC[C@H](CCc1c[nH]c2ccccc12)c1c[nH]c2ccccc12`, the activity change, negative = inhibition [2] is reported as inactive: 29.4% [at 7.69 µM] and the activation [3] is reported as inactive: -29.3%.

In the case of `CCCn1nnc(NC(=O)c2cc(Br)cc(Br)c2OC)n1`, the activity, negative = inhibition [1] is reported as inactive: -4.41% [at 17.2 µM].

For `CCOC(=O)c1c(CNCCN(CC)CC)n(C)c2cc(Br)c(OC)cc12`, the activity change, negative = inhibition [2] was inactive: 5.36% and the activation [3] was inactive: -9.75%.

For `COc1ccc(N/C(=N\c2nc(C)cc(C)n2)NC(=O)C(C)C)cc1OC`, the activity, negative = inhibition [1] was inactive: -1.06% [at 17.2 µM].

For `CC(C)C[C@H](NC(=O)[C@@H](O)[C@@H](N)Cc1ccccc1)C(=O)O`, the activity change, negative = inhibition [2] was inactive: -15.3% [at 38 µM] and inactive: -3.04% [at 38 µM], the activity change, negative = inhibition [6] was inconclusive: 2.02% [phenotype inactive] and inconclusive: -4.45% [phenotype inactive] and the Potency [7] was inconclusive: 1.58 µM [inhibitor, partial curve].

For `CCOC(=O)c1cc(C)n(Cc2cccc(OC)c2OC)c1C`, the activity, negative = inhibition [1] was inactive: -14.9% [at 17.2 µM].

For `COCC(=O)N1CCC2(CCCN(c3ncccn3)C2)CC1`, the activity change, negative = inhibition [2] was inconclusive: 86.6% [activator] [at 7.69 µM] and the activation [3] was inactive: 11.9%.

With `Cc1cccc(N2CC(=O)N(c3cccc(C)c3)CC2=O)c1` the activity change, negative = inhibition [2] was inactive: 5.99% and the activation [3] was inactive: 1.3%.

In the case of `CN1CCN(c2c3c(c(C#N)c4nc5ccccc5n24)CCCC3)CC1`, the activity change, negative = inhibition [2] is reported as inactive: 0.538% and the activation [3] is reported as inactive: -2.43%.

In the case of `CCOc1nc(SCCOc2ccc(C)cc2)nc(N(C)C)n1`, the activity change, negative = inhibition [2] is reported as inconclusive: -42.6% [inhibitor] and the Potency [3] is reported as inconclusive: 6.31 µM [inhibitor, partial curve].

For `Nc1ccc(CCNc2ncnc3c2ncn3[C@@H]2O[C@@H](CO)[C@H](O)[C@@H]2O)cc1`, the activity change, negative = inhibition [2] was inactive: 3.61% [at 38 µM], the activation [3] was inactive: 0.683% and the Potency [4] was “inactive”. The Potency [8] was inconclusive: 7.94 µM [inhibitor, partial curve, poor fit].

In the case of `O=C(O)c1cncc(C(=O)O)c1`, the activity, negative = inhibition [1] is reported as inactive: 6.17%.

In the case of `CN(C)c1nc(OCCOC(=O)Nc2ccc(Cl)cc2Cl)nc(N(C)C)n1`, the activity change, negative = inhibition [2] is reported as inactive: -3.72% and the activation [3] is reported as inconclusive: -28.9%.

In the case of `CC1(C)Cc2c(sc(NC(=O)c3ccc(Br)o3)c2C#N)CO1`, the activity change, negative = inhibition [2] is reported as inconclusive: 50.2% [activator] and the activation [3] is reported as inconclusive: -17.6%.

In the case of `C=CCN(CC=C)c1nc2ccccc2nc1C(C#N)C(=O)OC(C)C` (configuration not stated), the activity change, negative = inhibition [2] is reported as inconclusive: -43.6% [inhibitor] and the Potency [3] is reported as inconclusive: 12.6 µM [activator, single point].

For `Cc1ccc(Oc2nc3c(c(=O)n(Cc4ccccc4F)c(=O)n3C)n2C)cc1`, the activity, negative = inhibition [1] was inconclusive: -35.7% [inhibitor] [at 17.2 µM].

For `Nc1nc2c(ncn2[C@H]2CC[C@@H](CO)O2)c(=O)n1C(=O)c1ccccc1`, the activity, negative = inhibition [1] was inactive: 0.604%.

With `COC(=O)N1CCC2(CCN(Cc3ccc(C#N)cc3)CC2)CC1` the activity change, negative = inhibition [2] was inconclusive: 53.2% [inhibitor] [at 7.69 µM] and the activation [3] was inconclusive: 16.7%.
